Drawing on US20240034776A1, this text covers binding for four molecules.

By UniProt entry, the sequences of proteins in these tests, tags left out. Where a name states a change or a piece, a line headed by the entry shows the natural chain unless it says otherwise. Chains listed by the source or under a name are the forms on record and can include a tag or linker. Residues count along the entry.
UniProt P07766: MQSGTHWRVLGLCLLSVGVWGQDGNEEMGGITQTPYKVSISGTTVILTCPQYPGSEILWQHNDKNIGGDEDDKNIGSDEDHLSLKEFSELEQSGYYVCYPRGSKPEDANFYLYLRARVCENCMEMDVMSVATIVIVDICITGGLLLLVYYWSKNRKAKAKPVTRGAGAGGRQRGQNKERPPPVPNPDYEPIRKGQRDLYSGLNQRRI
HA-tagged CD3ε (expressed from pcDNA3.1 in transfected HCT116 cells): residues 23-207 of P07766
CD3E-human Fc protein (Sino Biological): residues 23-126 of P07766

Experiment [1] addresses CD3E-human Fc protein (Sino Biological) (UniProt P07766). As to the kind of experiment: OCTET (legend of FIG. 40).
The target in experiment [2] is CD3 (CD3ε) endogenously expressed in Jurkat cells (UniProt P07766). The experiment in a line: flow cytometry on Jurkat cells (legend of FIG. 9 and FIG. 10). In general terms: A flow cytometer gives signals particle by particle.
The target of experiment [3] is T1, NRP2 extracellular domain protein with hFc (Sino Biological) (UniProt O60462).
T1 sequence (looked up): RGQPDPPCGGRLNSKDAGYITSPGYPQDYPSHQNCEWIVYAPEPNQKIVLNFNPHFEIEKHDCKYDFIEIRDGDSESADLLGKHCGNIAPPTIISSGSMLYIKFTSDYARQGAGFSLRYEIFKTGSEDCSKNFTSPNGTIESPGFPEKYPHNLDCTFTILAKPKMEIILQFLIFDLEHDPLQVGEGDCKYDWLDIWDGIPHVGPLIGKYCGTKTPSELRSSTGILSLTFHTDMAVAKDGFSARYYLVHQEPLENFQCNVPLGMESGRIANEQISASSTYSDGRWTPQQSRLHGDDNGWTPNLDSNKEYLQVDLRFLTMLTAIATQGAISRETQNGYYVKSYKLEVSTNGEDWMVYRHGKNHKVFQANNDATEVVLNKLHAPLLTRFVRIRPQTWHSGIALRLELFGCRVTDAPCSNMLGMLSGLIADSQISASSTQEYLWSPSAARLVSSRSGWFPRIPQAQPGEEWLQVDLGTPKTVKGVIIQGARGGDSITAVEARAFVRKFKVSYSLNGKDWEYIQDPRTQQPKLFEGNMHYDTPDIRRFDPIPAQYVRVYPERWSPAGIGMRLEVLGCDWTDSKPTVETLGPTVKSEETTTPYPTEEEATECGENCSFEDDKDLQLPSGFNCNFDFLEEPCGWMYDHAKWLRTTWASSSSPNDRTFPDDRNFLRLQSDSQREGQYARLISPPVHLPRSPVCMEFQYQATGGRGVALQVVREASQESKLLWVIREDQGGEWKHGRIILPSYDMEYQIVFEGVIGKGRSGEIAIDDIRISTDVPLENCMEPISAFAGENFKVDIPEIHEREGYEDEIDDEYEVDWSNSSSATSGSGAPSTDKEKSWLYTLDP

For experiment [4], the target named is CD3 (CD3ε) endogenously expressed in Jurkat cells (UniProt P07766). The experiment in a line: flow cytometry on Jurkat cells, 0.5-4 µg/ml protein, anti-6x-His-FITC.
Experiment [5] has as its target CD3E-human Fc protein (Sino Biological) (UniProt P07766). The experiment in a line: OCTET (BLI), CD3E-Fc on Fc probes, ITPRIPL1 extracellular domain at 800/1600/3200 nM.
For experiment [6], the target named is HA-tagged CD3ε (expressed from pcDNA3.1 in transfected HCT116 cells) (human) (UniProt P07766). The experiment in a line: co-immunoprecipitation (Flag IP) from co-transfected HCT116 cells, Western blot. (A western blot detects proteins with antibodies after separation by electrophoresis.)
For experiment [7] the target is unchanged. The experiment in a line: co-immunoprecipitation (HA or Flag IP) from co-transfected HCT116 cells, Western blot.
Experiment [8] deals with T2, Flag-tagged full-length human ITPRIPL1 (expressed from pcDNA3.1 in transfected cells) (human) (UniProt Q6GPH6).
T2 sequence: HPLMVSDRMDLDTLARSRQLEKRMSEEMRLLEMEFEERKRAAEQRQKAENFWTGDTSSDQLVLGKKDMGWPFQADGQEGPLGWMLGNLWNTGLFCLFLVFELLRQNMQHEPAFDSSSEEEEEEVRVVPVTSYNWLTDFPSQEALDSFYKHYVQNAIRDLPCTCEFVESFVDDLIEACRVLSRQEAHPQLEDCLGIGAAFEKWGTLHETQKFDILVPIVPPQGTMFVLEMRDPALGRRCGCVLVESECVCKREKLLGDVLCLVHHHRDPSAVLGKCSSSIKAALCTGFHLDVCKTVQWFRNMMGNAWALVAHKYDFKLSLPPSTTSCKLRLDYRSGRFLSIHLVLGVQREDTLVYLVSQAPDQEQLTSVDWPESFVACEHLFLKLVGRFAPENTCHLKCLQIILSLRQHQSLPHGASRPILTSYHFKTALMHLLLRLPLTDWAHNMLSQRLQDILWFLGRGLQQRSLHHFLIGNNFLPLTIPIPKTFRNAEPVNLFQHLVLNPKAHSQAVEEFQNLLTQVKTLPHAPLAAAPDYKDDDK
As to the kind of experiment: flow cytometry (legend of FIG. 33 and FIG. 34).

Experiment [9] concerns the target T2, Flag-tagged full-length human ITPRIPL1 (expressed from pcDNA3.1 in transfected cells) (human). The experiment in a line: flow cytometry on 293E-ITPRIPL1 cells, 0-4 µg/ml NRP2 protein.
Experiment [10] addresses HA-tagged CD3ε (expressed from pcDNA3.1 in transfected HCT116 cells) (human) (UniProt P07766). The experiment in a line: immunofluorescence of co-cultured, separately transfected HCT116 cells.

Results are given in words; binding and its absence hold for the method and conditions named. For some of these results: Binding seen in cells or lysates may run through a third protein. Some results given as binding are weak or reduced against the parent protein; the word gives no strength. Sequences can lack the tags named with a protein.

B1: ITPRIPL1-RBD recombinant protein (human ITPRIPL1 extracellular domain, 25-103 amino acids, C-terminal 6x-His and Myc tags, Cusabio, from yeast) (ligand, not shown: small tags and cut ends)
chain: HPLMVSDRMDLDTLARSRQLEKRMSEEMRLLEMEFEERKRAAEQRQKAENFWTGDTSSDQLVLGKKDMGWPFQADGQEG
As for B1, the binding result in experiment [1], in [2], in [3], in experiment [4] and in [5] was “binds” each time.

B2: ITPRIPL1 extracellular domain (25-103 amino acids) with C-terminal Flag tag and GFP (ligand, not shown: large carriers)
chain: HPLMVSDRMDLDTLARSRQLEKRMSEEMRLLEMEFEERKRAAEQRQKAENFWTGDTSSDQLVLGKKDMGWPFQADGQEG
Consider B2, for which the binding entry in experiment [6] and in [7] was “binds” in each case.

B3: NRP2 extracellular domain protein with hFc (Sino Biological) (Fc fusion, UniProt O60462 21-864, looked up, not shown: a dimerising Fc or GST)
chain: RGQPDPPCGGRLNSKDAGYITSPGYPQDYPSHQNCEWIVYAPEPNQKIVLNFNPHFEIEKHDCKYDFIEIRDGDSESADLLGKHCGNIAPPTIISSGSMLYIKFTSDYARQGAGFSLRYEIFKTGSEDCSKNFTSPNGTIESPGFPEKYPHNLDCTFTILAKPKMEIILQFLIFDLEHDPLQVGEGDCKYDWLDIWDGIPHVGPLIGKYCGTKTPSELRSSTGILSLTFHTDMAVAKDGFSARYYLVHQEPLENFQCNVPLGMESGRIANEQISASSTYSDGRWTPQQSRLHGDDNGWTPNLDSNKEYLQVDLRFLTMLTAIATQGAISRETQNGYYVKSYKLEVSTNGEDWMVYRHGKNHKVFQANNDATEVVLNKLHAPLLTRFVRIRPQTWHSGIALRLELFGCRVTDAPCSNMLGMLSGLIADSQISASSTQEYLWSPSAARLVSSRSGWFPRIPQAQPGEEWLQVDLGTPKTVKGVIIQGARGGDSITAVEARAFVRKFKVSYSLNGKDWEYIQDPRTQQPKLFEGNMHYDTPDIRRFDPIPAQYVRVYPERWSPAGIGMRLEVLGCDWTDSKPTVETLGPTVKSEETTTPYPTEEEATECGENCSFEDDKDLQLPSGFNCNFDFLEEPCGWMYDHAKWLRTTWASSSSPNDRTFPDDRNFLRLQSDSQREGQYARLISPPVHLPRSPVCMEFQYQATGGRGVALQVVREASQESKLLWVIREDQGGEWKHGRIILPSYDMEYQIVFEGVIGKGRSGEIAIDDIRISTDVPLENCMEPISAFAGENFKVDIPEIHEREGYEDEIDDEYEVDWSNSSSATSGSGAPSTDKEKSWLYTLDP
For the molecule B3, the binding result in experiment [8] and in experiment [9] was “binds” throughout.

B4: Flag-tagged mouse ITPRIPL1 extracellular domain-green fluorescent protein (ligand, UniProt A2ASA8 23-96, looked up, not shown: large carriers)
chain: DRMDLDTLARSRQLEKRMSEEMRQLEMEFEERSRAAEQKQKVENFWRGDTSSDQLVLGKKDMGWPFQAGGQDGG
On to B4, for which, in experiment [10], the binding entry is “binds”.
